## Library compounds against nucleic acid targets

Targets, with sequences 5′ to 3′:
SAM-II: SAM-II riboswitch RNA pseudoknot, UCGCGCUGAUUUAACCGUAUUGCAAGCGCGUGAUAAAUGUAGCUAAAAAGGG. About 200 hits among about 21,000 compounds.
TPP: TPP riboswitch RNA three-way junction, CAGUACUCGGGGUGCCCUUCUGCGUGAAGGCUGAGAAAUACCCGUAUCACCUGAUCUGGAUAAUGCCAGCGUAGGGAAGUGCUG. About 160 hits among about 24,000 compounds.
PreQ1: PreQ1 riboswitch RNA pseudoknot, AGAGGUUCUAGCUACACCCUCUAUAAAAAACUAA. From B. subtilis. About 170 hits among about 24,000 compounds.

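Each compound is printed as two spots on a slide made to bind it covalently, so it has no test concentration; the read-out is fluorescence of the bound, labelled oligonucleotide. For the PreQ1, TPP and SAM-II riboswitches the laboratory earlier reported (doi:10.1038/s41467-019-09493-3) 1 µM RNA, 2 h, and a rule that included a mean Z-score above 3 (spot signal-to-noise against the whole library), a score well above that on a control array, and duplicate spots agreeing (coefficient of variation under 100). The data file gives only the calls; its cut-offs may differ, and compounds hitting several targets are kept. The calls come from the array alone, and fixing a compound to the slide can hide its binding.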
Key: hit = hit, no hit = tested without a hit.
Compounds were drawn at random from those tested, without regard to their results.
A target missing from an entry has no call listed here.

{"structure": "COC(=O)NC[C@@H]1CCN(C(=O)Cc2c(C)nc(N)nc2C)C[C@H]1O", "SAM-II": "no hit", "TPP": "no hit", "PreQ1": "no hit"}
{"structure": "CSCCCN(CCCO)Cc1ccc(C)s1", "SAM-II": "no hit", "TPP": "no hit", "PreQ1": "no hit"}
{"structure": "CCCS(=O)(=O)c1c(S(=O)(=O)CCC)c2c(N)cccn2c1C(=O)c1ccc(F)cc1", "SAM-II": "no hit", "TPP": "no hit", "PreQ1": "no hit"}
{"structure": "COc1ccc(CNCc2ccc(-c3ccccc3F)o2)cc1", "TPP": "no hit", "PreQ1": "no hit"}
{"structure": "CC(CO)(CO)Oc1ccccc1", "SAM-II": "no hit", "TPP": "no hit", "PreQ1": "no hit"}
{"structure": "N#CC1=C(N)Oc2[nH]nc(-c3ccccc3)c2C1c1ccccc1F", "stereo": "stereo not shown", "SAM-II": "no hit", "TPP": "no hit", "PreQ1": "no hit"}
{"structure": "Cc1n[nH]c(C)c1CCC(=O)NCC(O)C12CC3CC(CC(C3)C1)C2", "stereo": "stereo not shown", "SAM-II": "no hit", "TPP": "no hit", "PreQ1": "no hit"}
{"structure": "Cc1ccsc1[C@@H]1CCN(C(=O)C(=O)c2ccco2)C[C@H]1O", "SAM-II": "no hit", "TPP": "no hit", "PreQ1": "no hit"}
{"structure": "COc1ccc(C(=O)c2c(N)nc3n2CCC3)cc1OC", "SAM-II": "no hit", "TPP": "no hit", "PreQ1": "no hit"}
{"structure": "COc1cc(NC(=O)c2cc3ccccc3cc2O)c(OC)cc1Cl", "SAM-II": "no hit", "TPP": "no hit", "PreQ1": "no hit"}
{"structure": "COc1ccc(CCNCc2cccc(C)c2)cc1OC", "SAM-II": "no hit", "TPP": "no hit", "PreQ1": "no hit"}
{"structure": "CC(C)c1nnsc1C(=O)N1C[C@@H](CN2CCN(C)CC2)[C@@H](CO)C1", "SAM-II": "no hit", "TPP": "no hit", "PreQ1": "no hit"}
{"structure": "CN1C(=O)C2(c3ccccc31)c1c(oc3ccccc3c1=O)C(=O)N2CCO", "stereo": "stereo not shown", "TPP": "no hit", "PreQ1": "no hit"}
{"structure": "Cc1cccc(Cn2c(CCCO)nc3ccccc32)c1", "SAM-II": "no hit", "TPP": "no hit", "PreQ1": "no hit"}
{"structure": "N#Cc1cnn2c(NC3CCCCC3)c(-c3cccs3)[nH]c12", "TPP": "no hit", "PreQ1": "no hit"}
{"structure": "Nc1cc(C(=O)N2CCCC2)ccc1Cl", "SAM-II": "no hit", "TPP": "no hit", "PreQ1": "no hit"}
{"structure": "COc1ccc(Cl)cc1NC1=C(C(N)=O)S(=O)(=O)c2ccccc21", "TPP": "no hit", "PreQ1": "no hit"}
{"structure": "COc1ccc(-c2ccnc3c2ccn3C)cc1CO", "SAM-II": "no hit", "TPP": "no hit", "PreQ1": "no hit"}
{"structure": "Cc1cc2c(c(-c3cnc4ccccc4n3)c1)OC(CN)C2", "stereo": "stereo not shown", "SAM-II": "hit", "TPP": "hit", "PreQ1": "hit"}
{"structure": "CCCCCCn1c(N)c(C(=O)OC)c2nc3ccccc3nc21", "SAM-II": "no hit", "TPP": "no hit", "PreQ1": "no hit"}
{"structure": "CCc1c(C)nc2nncn2c1NCc1ccc(Cl)cc1", "TPP": "no hit", "PreQ1": "no hit"}
{"structure": "Cc1ccc(-n2nc(CO)c(C(=O)NCc3cccs3)n2)cc1C", "TPP": "no hit", "PreQ1": "no hit"}
{"structure": "O=C(NC1c2ccccc2-c2ccccc21)C1CNCCO1", "stereo": "stereo not shown", "SAM-II": "no hit", "TPP": "no hit", "PreQ1": "no hit"}
{"structure": "COc1ccc(CNCc2ccc(OC)c(OC)c2)cc1", "SAM-II": "no hit", "TPP": "no hit", "PreQ1": "no hit"}
{"structure": "Cc1ccc([C@H]2C[C@@H](C(F)(F)F)n3ncc(C(=O)Nc4ccc(C(C)O)cc4)c3N2)cc1", "stereo": "stereo partly shown", "SAM-II": "no hit", "TPP": "no hit", "PreQ1": "no hit"}
{"structure": "Cc1ccc(Nc2nc3ccccc3c3nnc(C)n23)c(Cl)c1", "SAM-II": "no hit", "TPP": "no hit", "PreQ1": "no hit"}
{"structure": "O=C1C(=NNc2ccc3cc(S(=O)(=O)O)ccc3c2)C=C(S(=O)(=O)O)c2cccnc21", "SAM-II": "no hit", "TPP": "no hit", "PreQ1": "no hit"}
{"structure": "CN1C(=O)CCS(=O)(=O)C1c1ccc(Cl)cc1", "stereo": "stereo not shown", "SAM-II": "no hit", "TPP": "no hit", "PreQ1": "no hit"}
{"structure": "COc1ccccc1[C@H](c1cccc2ccccc12)[C@@](C)(C#N)C(=O)N1CCC(c2cccc(C(F)(F)F)c2)CC1", "SAM-II": "no hit", "TPP": "no hit", "PreQ1": "no hit"}
{"structure": "Cc1ccc(Nc2cc(N3CCN(S(=O)(=O)c4ccc(Cl)cc4)CC3)nc(C)n2)cc1", "TPP": "no hit", "PreQ1": "no hit"}
{"structure": "CCOC(=O)N1CCC(Nc2c(N(C)C3CCCCC3)c(=O)c2=O)CC1", "TPP": "no hit", "PreQ1": "no hit"}
{"structure": "CN(C(=O)c1cccc(S(=O)(=O)N(C)c2ccccc2)c1)C1CCCCC1O", "stereo": "stereo not shown", "SAM-II": "no hit", "TPP": "no hit", "PreQ1": "no hit"}
{"structure": "COCCNCc1ccc2c(c1)n(C)c(=O)n2C", "TPP": "no hit", "PreQ1": "no hit"}
{"structure": "COc1ccc(OCc2nc(C(=O)N3CCc4c(c(CO)nn4C)C3)co2)cc1", "SAM-II": "no hit", "TPP": "no hit", "PreQ1": "no hit"}
{"structure": "N[C@@H]1c2ccccc2C2(CCN(c3nc(-c4ccccc4)no3)CC2)[C@H]1O", "SAM-II": "no hit", "TPP": "no hit", "PreQ1": "no hit"}
{"structure": "Cc1ccc(S(=O)(=O)N2CCC(C(=O)NCCCO)CC2)cc1", "SAM-II": "no hit", "TPP": "no hit", "PreQ1": "no hit"}
{"structure": "Cc1ccc(Nc2nc(C)cc(N3CCN(S(=O)(=O)c4cccc(Cl)c4)CC3)n2)cc1", "TPP": "no hit", "PreQ1": "no hit"}
{"structure": "CCOC(=O)c1c(N)n[nH]c1-c1ccc(OC)cc1", "SAM-II": "no hit", "TPP": "no hit", "PreQ1": "no hit"}
{"structure": "CN(C1CCCCC1O)S(C)(=O)=O", "stereo": "stereo not shown", "SAM-II": "no hit", "TPP": "no hit", "PreQ1": "no hit"}
{"structure": "Nc1cc(N2CCCC(CC=Cc3ccccc3)(C(=O)O)C2)nc(N)n1", "stereo": "stereo not shown", "SAM-II": "no hit", "TPP": "no hit", "PreQ1": "no hit"}

Repeated from the top, 3 entries:

structure	SAM-II	TPP	PreQ1
COC(=O)NC[C@@H]1CCN(C(=O)Cc2c(C)nc(N)nc2C)C[C@H]1O	no hit	no hit	no hit
CSCCCN(CCCO)Cc1ccc(C)s1	no hit	no hit	no hit
CCCS(=O)(=O)c1c(S(=O)(=O)CCC)c2c(N)cccn2c1C(=O)c1ccc(F)cc1	no hit	no hit	no hit

Source: the ROBIN nucleic acid binder screens (doi:10.1002/anie.202211358).